Measurements taken from PubChem BioAssay AID1487 (National Center for Advancing Translational Sciences (NCATS), 2009).
Values joined by “and” are separate entries in the source; they are usually repeats but may differ in a detail not shown here. Equal values may be shown once. The list shows a part of the results. The main result of the screen is listed elsewhere. These columns were measured beside it and carry no call. The list favours compounds with an active or inconclusive main result. Potencies come from curve fits of mixed quality, noted in brackets.

Assay: qHTS Assay for Modulators of Lamin A Splicing
Details: HeLa LMNA splicing GFP/RFP minigene ratio, 48 h
Method in brief: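 S3 HeLa cells stably expressing lamin A-EGFP splicing minigene plus DsRed2, 600 cells/well, 48 h compound exposure at 37C. Laser-scanning cytometry; analysed as GFP (500-530 nm)/RFP (575-640 nm) total intensity ratio; 0.5% DMSO vehicle.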

[1] = measured here: GFP splicing reporter channel
[2] = measured here: RFP viability control channel

Row | SMILES | AC50 [1] | AC50 [2]
1 | CCOC(=O)c1cnn(-c2ccccc2)c1NC(=O)c1ccccc1C | 0.178 µM [rising, full curve, poor fit] | 
2 | COc1ccc(Cl)cc1NC(=O)C1CCN(c2ncnc3c2nc2n3CCCCC2)CC1 | 31.6 µM [falling, partial curve] | 20 µM [falling, single point]
3 | CCOC(=O)c1ccc(Nc2cc(C)nc(N3CCOCC3)n2)cc1 | 35.5 µM [falling, single point] | 35.5 µM [falling, single point]
4 | O=C(Nc1cccc(C(F)(F)F)c1)C(Sc1ncnc2ccccc12)c1ccccc1 (centres undefined) |  | 0.398 µM [rising, full curve, poor fit]
5 | CC(C)(C)c1ccc(OCCC(=O)Nc2cccc(S(=O)(=O)N3CCCCC3)c2)cc1 | 5.01 µM [rising, partial curve] | 12.6 µM [rising, partial curve]
6 | COc1ccc(C(c2c(O)cc(C)n(Cc3ccco3)c2=O)N2CCN(c3ccccc3)CC2)cc1 (centres undefined) |  | 0.0251 µM [falling, full curve, poor fit]
7 | CC(C)CCNc1c(-c2cccs2)nc2ccccn12 | 1.58 µM [falling, partial curve, poor fit] | 
8 | O=[N+]([O-])c1ccc(N2CCCCC2)nc1 | 15.8 µM [rising, partial curve, poor fit] | 17.8 µM [rising, partial curve]
9 | O=C(Cc1ccccc1)NNc1c2ccccc2nc2ccccc12 |  | 10 µM [rising, partial curve]
10 | CC(=O)n1nc(-c2cccnc2)nc1NCc1cccs1 | 1.41 µM [falling, full curve, poor fit] | 2 µM [falling, full curve, poor fit]
11 | COc1ccc(CSC(=N)N)cc1[N+](=O)[O-] |  | 35.5 µM [rising, single point]
12 | COc1ccc(Cc2nc(C(=O)Nc3ccc(OC)cc3)cs2)cc1 |  | 15.8 µM [rising, partial curve]
13 | O=[N+]([O-])c1ccc(Sc2nnnn2-c2ccccc2)c(Cl)c1 |  | 11.2 µM [rising, single point]
14 | COc1ccccc1NC(=O)/C=C\C(=O)O |  | 6.31 µM [falling, single point]
15 | CC(C)OCCCNC(=S)N1CCC(C(=O)c2ccc3c(c2)OCCO3)CC1 |  | 35.5 µM [falling, single point]
16 | CCC(c1nnnn1CCc1ccccc1)N(Cc1ccco1)Cc1cc2cc(C)cc(C)c2[nH]c1=O (centres undefined) |  | 35.5 µM [rising, single point]
17 | O=C(NCCc1ccccc1F)C1CCCN1S(=O)(=O)c1ccccc1 (centres undefined) | 35.5 µM [rising, single point] | 
18 | COc1cc(/C=N/Nc2ncc(C(F)(F)F)cc2Cl)cc(OC)c1O |  | 15.8 µM [rising, single point]

Row | SMILES | AC50 [1] | AC50 [2]
19 | O=C1CC(N2CCC(c3nc4ccccc4s3)CC2)C(=O)N1Cc1ccccc1 (centres undefined) |  | 22.4 µM [rising, single point]
20 | CCCc1nnc(SCC(=O)N2CCCCC2C)n1CCOC (centres undefined) | 0.708 µM [rising, full curve, poor fit] | 
21 | CCOc1ccc(OCC(O)CNC2CCN(Cc3ccccc3)CC2)cc1 (centres undefined) |  | 35.5 µM [rising, single point]
22 | CCOc1cccc(C(=O)Nc2ccncc2)c1 |  | 14.1 µM [rising, partial curve, poor fit]
23 | O=C(Nc1cc(C(F)(F)F)ccc1N1CCOCC1)c1cccc(F)c1 | 22.4 µM [rising, single point] | 
24 | C=C1NC(=O)c2cc(CN(C)c3ccc(C(=O)N[C@@H](CCC(=O)O)C(=O)O)s3)ccc2N1 |  | 0.00891 µM [rising, full curve]
25 | O=C(OCC1OC(OC(=O)c2cc(O)c(O)c(OC(=O)c3cc(O)c(O)c(O)c3)c2)[C@@H](OC(=O)c2cc(O)c(O)c(OC(=O)c3cc(O)c(O)c(O)c3)c2)C(OC(=O)c2cc(O)c(O)c(OC(=O)c3cc(O)c(O)c(O)c3)c2)C1OC(=O)c1cc(O)c(O)c(OC(=O)c2cc(O)c(O)c(O)c2)c1)c1cc(O)c(O)c(OC(=O)c2cc(O)c(O)c(O)c2)c1 (some centres undefined) | 2.24 µM [falling, partial curve] | 2 µM [falling, partial curve]
26 | CN1CCN(C(CNC(=O)C(=O)Nc2ccc(F)cc2)c2cccnc2)CC1 (centres undefined) | 11.2 µM [falling, partial curve] | 15.8 µM [falling, partial curve, poor fit]
27 | CN1CCN(CCCN2c3ccccc3Sc3ccc(Cl)cc32)CC1 | 1.58 µM [rising, partial curve] and 1.78 µM [rising, partial curve, poor fit] | 
28 | COc1ccc(-c2nc(N)ncc2-c2csc(C)n2)c(O)c1OC |  | 1.26 µM [rising, single point]
29 | CN1/C(=C\C(=O)c2ccco2)C(C)(C)c2ccccc21 | 35.5 µM [rising, single point] | 28.2 µM [rising, single point]
30 | Cc1cc(NC(=O)Cc2csc(-c3ccccc3)n2)ccc1Br |  | 22.4 µM [rising, single point]
31 | CN(Cc1ccccc1)C(=S)Nc1ccc(OC(F)F)cc1 |  | 15.8 µM [rising, single point]
32 | c1ccc(CNc2nc(NCc3ccccc3)c3ccccc3n2)cc1 |  | 12.6 µM [falling, partial curve]
33 | Cc1ccc(NS(=O)(=O)c2ccc(NC(=O)C3CCCO3)cc2)cc1 (centres undefined) |  | 12.6 µM [rising, partial curve]
34 | CCc1ccc(CNC(=O)c2ccc3c(c2)nc2n3CCOC2)cc1 | 0.0282 µM [rising, full curve, poor fit] | 
35 | O=C(NNC(=S)NC(=O)C12CC3CC(CC(C3)C1)C2)c1ccncc1 |  | 35.5 µM [rising, single point]
36 | CC1CCC(NC(=O)c2ccc3c(c2)N(Cc2cccc(F)c2)C(=O)c2ccccc2S3)CC1 (centres undefined) |  | 14.1 µM [rising, single point]

Pulled one by one from above (2):
Row | SMILES | AC50 [1] | AC50 [2]
34 | CCc1ccc(CNC(=O)c2ccc3c(c2)nc2n3CCOC2)cc1 | 0.0282 µM [rising, full curve, poor fit] | 
30 | Cc1cc(NC(=O)Cc2csc(-c3ccccc3)n2)ccc1Br |  | 22.4 µM [rising, single point]
